According to patent US8703114B2 (priority 2008, dated 2014):

Legend:
[1] = general procedure: Fmoc solid-phase peptide synthesis; 2-chlorotrityl chloride; details: whole synthesis
[2] = Fmoc solid-phase peptide synthesis; 2-chlorotrityl chloride; details: whole synthesis, HPLC

## MA-Gly-Gly-Pro-Nle-NH(CH2)2NH2
[1]
  crude HPLC purity: 89%

## MA-Gly-Gly-Pro-Nle
[2]
  purity (crude or final not stated): 95%
